According to patent US20090148382A1, “Technetium- and rhenium-bis(heteroaryl) complexes, and methods of use thereof” (Molecular Insight Pharmaceuticals, Inc., priority 2004, published 2009):

Test: Tc-99m labeling as a function of ligand amount

| SMILES | % Labeled (Ligand amount 0.1 μg) | % Labeled (Ligand amount 1 μg) | % Labeled (Ligand amount 10 μg) | % Labeled (Ligand amount 100 μg) | % Labeled (Ligand amount 500 μg) |
| --- | --- | --- | --- | --- | --- |
| N[C@@H](CCCCN(Cc1ccccn1)Cc1ccccn1)C(=O)O [DpK] | 5% | 16% | 32% | 47% | 100% |
| O=C(NC(CCCCN(Cc1ccccn1)Cc1ccccn1)C(=O)O)OCC1c2ccccc2-c2ccccc21 (stereo not drawn) [Fmoc-DpK, [ε-{N,N-di(pyridyl-2-methyl)}α-(fmoc)lysine]] | 7% | 52% | 93.9% | 100% | 100% |
